Laboratory results: paper doi:10.1101/2021.11.24.469949
Results are given in words; binding and its absence hold for the method and conditions named. In cells and extracts the contact can be indirect. Here binding means that the protein was enriched with, or labelled near, the bait; the list need not be complete. Tags and fused reporters may be left off the sequences shown.

B1: PHAVOLUTA/ATHB9 (PHV) (protein, UniProt O04292 1-841)
chain: MMAHHSMDDRDSPDKGFDSGKYVRYTPEQVEALERVYAECPKPSSLRRQQLIRECPILCNIEPRQIKVWFQNRRCREKQRKESARLQTVNRKLSAMNKLLMEENDRLQKQVSNLVYENGFMKHRIHTASGTTTDNSCESVVVSGQQRQQQNPTHQHPQRDVNNPANLLSIAEETLAEFLCKATGTAVDWVQMIGMKPGPDSIGIVAVSRNCSGIAARACGLVSLEPMKVAEILKDRPSWFRDCRCVETLNVIPTGNGGTIELVNTQIYAPTTLAAARDFWTLRYSTSLEDGSYVVCERSLTSATGGPNGPLSSSFVRAKMLSSGFLIRPCDGGGSIIHIVDHVDLDVSSVPEVLRPLYESSKILAQKMTVAALRHVRQIAQETSGEVQYSGGRQPAVLRTFSQRLCRGFNDAVNGFVDDGWSPMSSDGGEDITIMINSSSAKFAGSQYGSSFLPSFGSGVLCAKASMLLQNVPPLVLIRFLREHRAEWADYGVDAYSAASLRATPYAVPCVRTGGFPSNQVILPLAQTLEHEEFLEVVRLGGHAYSPEDMGLSRDMYLLQLCSGVDENVVGGCAQLVFAPIDESFADDAPLLPSGFRVIPLDQKTNPNDHQSASRTRDLASSLDGSTKTDSETNSRLVLTIAFQFTFDNHSRDNVATMARQYVRNVVGSIQRVALAITPRPGSMQLPTSPEALTLVRWITRSYSIHTGADLFGADSQSCGGDTLLKQLWDHSDAILCCSLKTNASPVFTFANQAGLDMLETTLVALQDIMLDKTLDDSGRRALCSEFAKIMQQGYANLPAGICVSSMGRPVSYEQATVWKVVDDNESNHCLAFTLVSWSFV
B2: ATHB8 (protein, UniProt Q39123 1-833)
chain: MGGGSNNSHNMDNGKYVRYTPEQVEALERLYNDCPKPSSMRRQQLIRECPILSNIEPKQIKVWFQNRRCREKQRKEASRLQAVNRKLTAMNKLLMEENDRLQKQVSHLVYENSYFRQHPQNQGNLATTDTSCESVVTSGQHHLTPQHQPRDASPAGLLSIADETLTEFISKATGTAVEWVQMPGMKPGPDSIGIVAISHGCTGIAARACGLVGLDPTRVAEILKDKPCWLRDCRSLDIVNVLSTANGGTLELIYMQLYAPTTLAPARDFWMLRYTSVMEDGSLVICERSLNNTQNGPSMPPSPHFVRAEILPSGYLIRPCEGGGSILHIVDHFDLEPWSVPEVLRSLYESSTLLAQRTTMAALRYLRQISQEISQPNVTGWGRRPAALRALSQRLSKGFNEAVNGFSDEGWSILESDGIDDVTLLVNSSPTKMMMTSSLPFANGYTSMPSAVLCAKASMLLQNVPPSILLRFLREHRQEWADNSIDAYSAAAIKAGPCSLPIPRPGSFGGQVILPLAHTIENEEFMEVIKLESLGHYQEDMMMPADIFLLQMCSGVDENAVESCAELIFAPIDASFSDDAPIIPSGFRIIPLDSKSEGLSPNRTLDLASALDVGSRTAGDSCGSRGNSKSVMTIAFQLAFEMHMQENVASMARQYVRSVIASVQRVALALSPSSHQLSGLRPPPASPEAHTLARWISHSYRCYLGVDLLKPHGTDLLKSLWHHPDAVMCCSLKALSPVFTFANQAGLDMLETTLVALQDITLDKIFDNNNGKKTLSSEFPQIMQQGFMCMDGGICMSSMGRAVTYEKAVGWKVLNDDEDPHCICFMFLNWSFI

How the values were obtained:
[1] = molecular target: T1, ZPR3-tdTomato-3xFLAG (Arabidopsis) (UniProt Q9LXI8); experiment: affinity purification with mass spectrometry
T1 sequence: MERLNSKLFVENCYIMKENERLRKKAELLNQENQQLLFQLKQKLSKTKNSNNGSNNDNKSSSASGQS

[2] = molecular target: T2, 3xFLAG tagged CNA (Arabidopsis) (UniProt Q9ZU11); experiment: affinity purification with mass spectrometry
T2 sequence: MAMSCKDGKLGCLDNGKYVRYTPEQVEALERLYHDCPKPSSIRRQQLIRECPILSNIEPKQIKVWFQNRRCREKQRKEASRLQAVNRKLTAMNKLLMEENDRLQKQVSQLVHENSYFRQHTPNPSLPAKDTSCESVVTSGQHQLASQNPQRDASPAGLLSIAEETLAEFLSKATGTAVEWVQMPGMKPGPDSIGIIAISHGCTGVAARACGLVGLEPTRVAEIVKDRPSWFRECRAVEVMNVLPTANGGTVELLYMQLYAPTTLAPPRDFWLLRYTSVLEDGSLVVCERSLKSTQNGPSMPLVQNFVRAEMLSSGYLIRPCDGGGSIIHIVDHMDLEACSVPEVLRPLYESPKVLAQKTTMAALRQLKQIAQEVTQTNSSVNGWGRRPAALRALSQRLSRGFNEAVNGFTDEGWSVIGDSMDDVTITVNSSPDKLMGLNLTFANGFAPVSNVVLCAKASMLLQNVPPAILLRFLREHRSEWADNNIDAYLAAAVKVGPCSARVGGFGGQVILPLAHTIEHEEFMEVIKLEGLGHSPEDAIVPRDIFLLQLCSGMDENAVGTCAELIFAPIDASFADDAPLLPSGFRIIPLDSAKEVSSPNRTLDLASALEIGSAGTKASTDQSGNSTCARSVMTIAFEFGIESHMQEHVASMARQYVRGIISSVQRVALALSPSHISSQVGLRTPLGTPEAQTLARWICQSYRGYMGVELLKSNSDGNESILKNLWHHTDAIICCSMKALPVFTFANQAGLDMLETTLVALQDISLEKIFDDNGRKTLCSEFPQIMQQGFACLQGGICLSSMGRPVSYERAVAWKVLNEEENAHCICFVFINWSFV

Binder	binding [1]	binding [2]
B1	binds	binds
B2	binds	binds
